PMC5688144, “Assay interference and off-target liabilities of reported histone acetyltransferase inhibitors” (Nature Communications, 2017)

Tests used:
[1] = UPLC-MS gross compound stability in assay buffer; settings: 25 mM sodium phosphate, pH 7.0, 30 °C, no GSH or CoA
Method: Select compounds were incubated up to 24 h for additional stability analyses. Chromatograms and mass spectra were qualitatively analyzed for the formation of new peaks and/or loss of parent peaks.

Absorbance spectra = format: physicochemical; settings: 25 mM sodium phosphate, pH 7.0
Method: Selected test compounds were assessed for absorption between 300 and 750 nm. Most compound absorption spectra were obtained at 100, 50, and 10 μM final compound concentrations in ALARM NMR buffer (25 mM sodium phosphate, pH 7.0). Final concentration of DMSO was constant at 2.0% (v/v). Compounds were allowed to incubate at RT in buffer for 10 min in UV-transparent polystyrene 384-well plates. Absorbance spectra were then obtained on a SpectraMax M3 or BMG Labtech CLARIOstar microplate reader at 25 °C. Significant absorbance was defined as molar absorptivity constants greater than 2000 M^−1 cm^−1 at wavelengths greater than 300 nm.

c1cc(SSc2ccns2)sn1 [Compound 2, NU-9056]
UPLC-MS buffer stability counter-screen [1]: Grossly stable
Absorption max (nm) (Absorbance spectra): 290 nm
Absorbance counter-screen (Absorbance spectra; 300-750 nm): Negative
